Measurements published in ChEMBL document CHEMBL1126949 (J Med Chem, 1993).

By UniProt entry, the sequences of proteins in these tests, tags left out.
UniProt P19020, whole entry: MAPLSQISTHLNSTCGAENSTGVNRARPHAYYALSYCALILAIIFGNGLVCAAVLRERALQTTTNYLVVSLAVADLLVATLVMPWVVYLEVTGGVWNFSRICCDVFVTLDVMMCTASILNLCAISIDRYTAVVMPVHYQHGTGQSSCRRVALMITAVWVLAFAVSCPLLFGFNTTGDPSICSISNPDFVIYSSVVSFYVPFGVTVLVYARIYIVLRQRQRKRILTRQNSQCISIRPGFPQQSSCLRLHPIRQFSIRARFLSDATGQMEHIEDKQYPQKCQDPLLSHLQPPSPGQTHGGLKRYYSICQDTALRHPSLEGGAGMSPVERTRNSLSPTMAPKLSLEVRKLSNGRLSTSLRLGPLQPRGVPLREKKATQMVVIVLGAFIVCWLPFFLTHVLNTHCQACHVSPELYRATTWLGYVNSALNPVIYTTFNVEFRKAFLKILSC

Molecular target: D(3) dopamine receptor (Rattus norvegicus, UniProt P19020)
Assay: biochemical

Compound	Ki [µM]
CC(C)NCC(O)COc1cccc2ccccc12 (racemic) [PROPRANOLOL]	> 5
C=CCN1CC[C@]23c4c5ccc(O)c4O[C@H]2C(=O)CC[C@@]3(O)[C@H]1C5 [NALOXONE]	> 20
